Protein sequences, listed by entry. Tags and fused reporters are not part of them.
UniProt Q92830, whole entry, looked up: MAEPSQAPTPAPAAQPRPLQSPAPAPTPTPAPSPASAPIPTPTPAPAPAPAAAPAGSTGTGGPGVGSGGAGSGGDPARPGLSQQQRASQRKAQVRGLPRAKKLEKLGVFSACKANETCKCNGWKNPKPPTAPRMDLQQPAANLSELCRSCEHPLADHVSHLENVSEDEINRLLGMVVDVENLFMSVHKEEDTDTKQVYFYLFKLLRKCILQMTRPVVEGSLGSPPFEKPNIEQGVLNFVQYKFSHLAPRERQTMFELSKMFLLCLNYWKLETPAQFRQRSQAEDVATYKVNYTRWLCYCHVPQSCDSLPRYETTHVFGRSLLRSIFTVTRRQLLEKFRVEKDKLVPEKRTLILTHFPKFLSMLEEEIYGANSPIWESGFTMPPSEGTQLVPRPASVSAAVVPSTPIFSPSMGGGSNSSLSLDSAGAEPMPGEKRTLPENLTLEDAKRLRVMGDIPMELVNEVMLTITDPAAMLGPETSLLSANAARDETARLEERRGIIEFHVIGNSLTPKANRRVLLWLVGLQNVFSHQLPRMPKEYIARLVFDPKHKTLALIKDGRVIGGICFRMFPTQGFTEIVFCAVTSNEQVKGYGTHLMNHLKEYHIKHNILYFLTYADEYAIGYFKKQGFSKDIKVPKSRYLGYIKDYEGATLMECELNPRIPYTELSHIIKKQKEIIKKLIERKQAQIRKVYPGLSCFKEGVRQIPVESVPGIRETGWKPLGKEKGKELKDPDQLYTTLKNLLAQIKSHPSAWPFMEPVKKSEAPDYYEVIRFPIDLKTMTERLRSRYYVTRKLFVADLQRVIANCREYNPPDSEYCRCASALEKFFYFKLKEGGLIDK

The whole screen tested about 390,000 compounds, of which about 820 (0.21%) were called active. This list was built around the results that the source calls inconclusive (neither active nor inactive); the mix of calls is not that of the screen. The call rests on the fitted dose curve; in most records, active means well fitted inhibition curve with a large enough effect; inconclusive means small, poorly fitted or top-dose-only effect, or another doubt; inactive means no such curve, though single readings can be large or run the other way. A potency beside an inconclusive call is a rough fit, not a confirmed value.
These compounds were tested against Histone acetyltransferase KAT2A (Homo sapiens) (UniProt Q92830) (assay: qHTS Assay for Inhibitors of GCN5L2). Conditions: GCN5L2 HAT assay, ThioGlo1 CoA-SH fluorescence; activity change, negative = inhibition: at 58.9 µM (top of the series) unless noted.
Procedure, shortened: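 GCN5L2 (20 nM) in 50mM HEPES pH 7.5, 0.1mM EDTA, 0.01% Tween-20 preincubated 15 min with compounds at room temperature. Reaction started with H3(1-25) 75uM, acetyl-CoA 70uM, ThioGlo1 50uM; CoA-thiol fluorescence (Ex340/Em540) read at 0 and 20 min.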
With `CCCCOC(=O)c1c(C)oc2c1cc(NS(=O)(=O)c1cc(OC)ccc1OC)c1ccccc12` the “activity change, negative = inhibition” value was inactive: -12%.
For `CC(C)Oc1ccc(/C(O)=C2/C(=O)C(=O)N(CCN3CCNCC3)C2c2ccc(C(C)C)cc2)cc1` (stereo not given), the “activity change, negative = inhibition” value was inactive: -11.7%.
In the case of `O=C(O)c1ccc(-c2sc(Nc3ccccc3)n[n+]2-c2ccccc2)cc1`, the Potency is reported as inconclusive: 6.31 µM [inhibitor, single point].
With `O=C(Nc1cc(S(=O)(=O)N2CCOCC2)ccc1N1CCCC1)c1ccc(Cl)cc1` the Potency was inconclusive: 12.6 µM [inhibitor, partial curve].
With `COc1cc(/C=C(\C#N)C(=O)Nc2ccccc2C(=O)O)cc(Cl)c1OC` the Potency was inconclusive: 39.8 µM [inhibitor, single point].
`O=C1c2cccc3c([N+](=O)[O-])ccc(c23)C(=O)N1CCc1ccccn1` was tested, and the “activity change, negative = inhibition” value was inactive: -0.426%.
For `O=[N+]([O-])c1ccc(O)c(/C=N/Nc2ccccc2Cl)c1`, the Potency was inconclusive: 39.8 µM [inhibitor, single point].
With `COC(=O)Cc1c(C)c2ccc3c(c2oc1=O)CN(Cc1ccccc1Cl)CO3` the Potency was inconclusive: 22.4 µM [inhibitor, partial curve].
For `COc1ccc(C(C[N+](=O)[O-])c2c(-c3ccccc3)cc3ccccn23)cc1` (stereo not given), the “activity change, negative = inhibition” value was inactive: -12.1%.
`CC1=NN(c2ccccc2)C(=O)/C1=C\C=C\c1ccccc1` was tested, and the Potency was inconclusive: 25.1 µM [inhibitor, partial curve, poor fit].
In the case of `COc1ccccc1N1CCN(C(c2cccs2)C(C)NC(=O)c2cccnc2)CC1` (stereo not given), the “activity change, negative = inhibition” value is reported as inactive: -4.99%.
For `COC(=O)[C@H]1CN(C(=O)c2ccccc2)C(=O)N1`, the Potency was inconclusive: 6.31 µM [inhibitor, single point].
With `Nc1nc(NCC(=O)O)nc(NCc2ccccc2)c1[N+](=O)[O-]` the Potency was inconclusive: 3.55 µM [inhibitor, single point].
For `O=C(CSc1ccc(-c2ccccn2)nn1)Nc1ccccc1`, the Potency was inconclusive: 39.8 µM [inhibitor, single point].
With `CCc1c(C)c2cc3c(c(C)c2oc1=O)OCN(CCc1ccccc1F)C3` the Potency was inconclusive: 7.94 µM [inhibitor, partial curve].
`CN1C(=O)/C(=C/c2ccccc2Cl)Sc2ccc(C(=O)N3CCCC3)cc21` was tested, and the “activity change, negative = inhibition” value was inactive: -13.8%.
`Cc1cc(=O)n(C2CCS(=O)(=O)C2)[nH]1` (stereo not given) was tested, and the “activity change, negative = inhibition” value was inactive: -8.79%.
For `CCc1n[nH]c(=S)n1/N=C/C(C)=C\c1ccccc1`, the Potency was inconclusive: 35.5 µM [inhibitor, single point].
With `COc1ccc(C(=O)N2CCN(c3ccc(NC(=O)Cc4ccccc4)cc3)CC2)cc1` the Potency was inconclusive: 0.316 µM [inhibitor, full curve].
With `Cc1onc(-c2ccccc2)c1C(=O)n1nnc2ccccc21` the “activity change, negative = inhibition” value was inactive: -2.05%.
`COc1cccc(Oc2coc3c(CN4CCOCC4)c(O)ccc3c2=O)c1` was tested, and the Potency was inconclusive: 39.8 µM [inhibitor, single point].
In the case of `Cc1ccc(CN2CC(C(=O)N3CCN(S(=O)(=O)c4ccc(C(C)C)cc4)CC3)CC2=O)cc1` (stereo not given), the “activity change, negative = inhibition” value is reported as inactive: -1.73%.
With `Cc1ccc(-c2cc(C(=O)N/N=C/c3c(C)nn(C)c3C)c3ccccc3n2)cc1C` the “activity change, negative = inhibition” value was inactive: -10.6%.
`COc1ccc(-c2c(C)c3ccc(O)c(CN4CCC(C)CC4)c3oc2=O)cc1OC` was tested, and the Potency was inconclusive: 39.8 µM [inhibitor, single point].
With `CC1=Nn2c(nnc2-c2ccccc2F)SC1` the Potency was inconclusive: 5.62 µM [inhibitor, single point].
`CN(C(=O)c1nn(C)c2c1CSc1ccccc1-2)c1ccccc1Cl` was tested, and the Potency was inconclusive: 2.24 µM [inhibitor, full curve, poor fit].
With `COc1cccc(CN2CCN(Cc3ccccc3C(F)(F)F)CC2)c1` the “activity change, negative = inhibition” value was inactive: -19.8%.
In the case of `O=C(CCNS(=O)(=O)c1ccccc1)OCC(=O)c1ccc(Cl)cc1`, the Potency is reported as inconclusive: 0.158 µM [inhibitor, full curve, poor fit].
In the case of `CCNc1ncc2nc(-c3ccc(Cl)cc3)c(=O)n(C3CC3)c2n1`, the Potency is reported as inconclusive: 11.2 µM [inhibitor, partial curve].
For `COc1ccc(-c2nc3sc(CCNC(=O)c4ccc(Br)o4)c(C)n3n2)cc1`, the “activity change, negative = inhibition” value was inactive: -9.45%.
In the case of `CCC1(C)CC(C(CC(=O)O)c2ccc(C)cc2)CCO1` (stereo not given), the Potency is reported as inconclusive: 39.8 µM [inhibitor, single point].
In the case of `N#Cc1c(-c2ccccc2)cc(-c2ccccc2)nc1SCC(O)CS(=O)(=O)Cc1ccc(Cl)cc1` (stereo not given), the Potency is reported as inconclusive: 31.6 µM [inhibitor, single point].
With `CC(=O)c1ccc(N2CCN(C(=O)c3cc(-c4ccncc4)nc4ccc(Br)cc34)CC2)cc1` the Potency was inconclusive: 35.5 µM [inhibitor, single point].
In the case of `Cc1cccnc1NC(=O)CSc1ncnc2sc(C)c(C)c12`, the Potency is reported as inconclusive: 11.2 µM [inhibitor, partial curve].
`O=C(/C=C/c1ccc(OCCCF)cc1)NCc1ccc(Cl)cc1` was tested, and the Potency was active: 3.55 µM.
With `COc1ccc(C2C(=O)N(C3CCCCC3)CC(=O)N2Cc2ccco2)cc1` (stereo not given) the Potency was inconclusive: 39.8 µM [inhibitor, single point].
For `COc1ccc(NC2=CC(c3ccc(F)cc3)N(c3ccc(OC)cc3)C2=O)cc1` (stereo not given), the “activity change, negative = inhibition” value was inactive: -4.05%.
`CC[C@]12c3[nH]c4cc(-c5ccco5)ccc4c3CCN1C(=O)[C@@H](CC(=O)NC/C=C(\C)CCC=C(C)C)C[C@@H]2C(=O)N1CCN(C(=O)c2ccco2)CC1` was tested, and the “activity change, negative = inhibition” value was inactive: -11.4%.
With `O=C(CC12CC3CC(CC(C3)C1)C2)N/N=C/c1ccc([N+](=O)[O-])o1` the Potency was inconclusive: 39.8 µM [inhibitor, single point].
With `CCN(CC)c1ccc(C(=S)N2CCN(c3ccccc3)CC2)cc1` the “activity change, negative = inhibition” value was inactive: 0.397%.
For `CC(=O)c1ccc(N2CCN(C(=O)c3ccco3)CC2)c(F)c1`, the “activity change, negative = inhibition” value was inactive: -3.62%.
For `Cc1ccc(-c2csc(NC(=O)CSc3nc(C)cc(=O)[nH]3)n2)cc1`, the activity change, negative = inhibition was inactive: 0.495% [at 0.501 µM].
For `O=C(N/N=C\c1ccc(Cl)s1)C1COc2ccccc2O1` (stereo not given), the Potency was inconclusive: 35.5 µM [inhibitor, partial curve].
`CCc1ccc(NC2=CC(=O)C(=O)c3ccccc32)cc1` was tested, and the “activity change, negative = inhibition” value was inactive: -9.61%.
In the case of `CC(=O)N[C@@H](CSC/C=C(\C)CC/C=C(\C)CC/C=C(\C)CCC=C(C)C)C(=O)O`, the Potency is reported as inconclusive: 31.6 µM [inhibitor, single point].
`CC1CC2=C(NC(=S)NC2c2ccc(F)cc2)/C(=C/c2ccc(F)cc2)C1` (stereo not given) was tested, and the “activity change, negative = inhibition” value was inactive: -19.6%.
For `CCCNC(=O)c1ccc2c(c1)ncn2-c1ccccc1OC`, the Potency was inconclusive: 22.4 µM [inhibitor, partial curve, poor fit].
In the case of `COc1ccc(NC(=O)CN(C)C(=O)c2cc3c(s2)CCC3)cc1`, the Potency is reported as inconclusive: 8.91 µM [inhibitor, partial curve].
`CCOc1ccc(S(=O)(=O)NCC(c2ccc(N(C)C)cc2)N2CCCC2)cc1` (stereo not given) was tested, and the “activity change, negative = inhibition” value was inactive: -8.56%.
For `COC(=O)c1cc(=O)[nH]c(SCc2cccc(C)c2)n1`, the “activity change, negative = inhibition” value was inactive: 0.0894%.
`O=C(O)c1cc(N2N=C(C(F)(F)F)/C(=C/C=C/c3ccco3)C2=O)ccc1Cl` was tested, and the Potency was active: 7.94 µM.
`Clc1cccc(-n2ncc3c(NC4CCCCC4)ncnc32)c1` was tested, and the “activity change, negative = inhibition” value was inactive: -7.55%.
For `COC(=O)C1CCN(Cc2cn(Cc3ccccc3)nc2-c2cc3ccccc3o2)CC1`, the Potency was inconclusive: 39.8 µM [inhibitor, single point].
`c1ccc(CCNc2nc(-c3ccccn3)nc3ccccc23)cc1` was tested, and the Potency was inconclusive: 3.98 µM [inhibitor, partial curve].
In the case of `CC1CC(=O)c2cnc(Nc3ccccc3)nc2C1` (stereo not given), the Potency is reported as inconclusive: 3.98 µM [inhibitor, partial curve].
With `CCc1ccc(C(=O)CSc2nc(C)cc(=O)[nH]2)cc1` the Potency was inconclusive: 39.8 µM [inhibitor, single point].
In the case of `Cc1cccc(C(=O)Nc2cccc(C(=O)N/N=C/c3ccc4c(c3)OCO4)c2)c1`, the “activity change, negative = inhibition” value is reported as inactive: -6.8%.
With `CC1Cc2nc(SCC(=O)Nc3nc4ccccc4s3)n(C)c(=O)c2S1` (stereo not given) the Potency was inconclusive: 8.91 µM [inhibitor, partial curve, poor fit].
With `COc1ccc(C2=Nn3c(nnc3-c3ccccc3C(F)(F)F)SC2)cc1OC1CCOC1` (stereo not given) the “activity change, negative = inhibition” value was inactive: -6.94%.
`Cn1c(/C=C/c2cccc(Br)c2)nc2ccccc2c1=O` was tested, and the Potency was inconclusive: 11.2 µM [inhibitor, partial curve, poor fit].
In the case of `COc1ccc(O)c(/C=N/NC(=S)NCCc2ccccc2)c1`, the “activity change, negative = inhibition” value is reported as inactive: -28.2%.
In the case of `CCCCCCCCCCCCCCCCn1cc[n+](Cc2ccccc2)c1C`, the Potency is reported as active: 8.91 µM.
In the case of `CC(C)c1ccc(CN2CCN(C(=O)CCl)CC2)cc1`, the “activity change, negative = inhibition” value is reported as inactive: -4.59%.
For `COc1ccc(/C=C(/NC(=O)c2ccccc2)C(=O)Nc2cccc(C(=O)O)c2)cc1`, the Potency was inconclusive: 4.47 µM [inhibitor, full curve, poor fit].
In the case of `O=C(Nc1cc(Cl)ccc1F)c1ccc(-n2cncn2)c([N+](=O)[O-])c1`, the Potency is reported as inconclusive: 0.112 µM [inhibitor, full curve, poor fit].
`Cc1ccc(NC(=O)CS(=O)CC(=O)NCC2CCCO2)cc1` (stereo not given) was tested, and the Potency was inconclusive: 12.6 µM [inhibitor, partial curve, poor fit].
In the case of `COc1ccc(OC)c(CNC(=O)c2ccc(N3Cc4ccccc4Oc4ncccc43)s2)c1`, the Potency is reported as inconclusive: 25.1 µM [inhibitor, single point].
For `Cc1cc(NC(=O)CCc2nc3cccnc3n2-c2ccccc2)ccc1Br`, the “activity change, negative = inhibition” value was inactive: 3.98%.
For `O=C(Nc1cc([N+](=O)[O-])ccc1C(=O)Nc1cccnc1)c1ccccc1`, the Potency was inconclusive: 0.891 µM [inhibitor, full curve, poor fit].
In the case of `Cc1cc(OCC(=O)Nc2ccc(N3CCN(C(=O)c4ccco4)CC3)cc2)cc(C)c1Cl`, the Potency is reported as inconclusive: 0.224 µM [inhibitor, full curve, poor fit].

Source: PubChem BioAssay AID504327 (National Center for Advancing Translational Sciences (NCATS), 2011)
On the % scale 0 is the no-effect control and ±100 the full control effect; potency means the concentration at half of the fitted maximal effect.
